Results are given in words; binding and its absence hold for the method and conditions named. In cells and extracts the contact can be indirect. These calls come from enrichment with a bait or labelling near it, and not all partners need be listed. No binding means not detected with the bait. For part of these data: Where a sequence is shown, tags or fusion partners need not be part of it.
T1: FICD wild type, his tag labelled (human) (UniProt Q9BVA6)
T1 sequence: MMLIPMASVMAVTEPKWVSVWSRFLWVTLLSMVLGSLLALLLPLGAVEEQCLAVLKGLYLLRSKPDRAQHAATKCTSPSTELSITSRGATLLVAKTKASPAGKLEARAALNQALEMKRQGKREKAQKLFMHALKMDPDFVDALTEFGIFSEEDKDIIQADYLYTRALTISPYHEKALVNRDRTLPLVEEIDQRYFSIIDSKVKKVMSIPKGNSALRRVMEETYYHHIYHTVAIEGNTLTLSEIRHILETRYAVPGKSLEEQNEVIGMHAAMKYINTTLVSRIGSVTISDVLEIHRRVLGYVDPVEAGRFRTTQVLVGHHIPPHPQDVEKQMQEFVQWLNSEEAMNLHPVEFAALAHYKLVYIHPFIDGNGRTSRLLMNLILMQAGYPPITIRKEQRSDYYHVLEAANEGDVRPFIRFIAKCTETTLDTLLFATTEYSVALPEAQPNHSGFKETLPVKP

Chains of the proteins cited; added tags and fusions are not shown. Residues count along the entry.
UniProt Q9Y570: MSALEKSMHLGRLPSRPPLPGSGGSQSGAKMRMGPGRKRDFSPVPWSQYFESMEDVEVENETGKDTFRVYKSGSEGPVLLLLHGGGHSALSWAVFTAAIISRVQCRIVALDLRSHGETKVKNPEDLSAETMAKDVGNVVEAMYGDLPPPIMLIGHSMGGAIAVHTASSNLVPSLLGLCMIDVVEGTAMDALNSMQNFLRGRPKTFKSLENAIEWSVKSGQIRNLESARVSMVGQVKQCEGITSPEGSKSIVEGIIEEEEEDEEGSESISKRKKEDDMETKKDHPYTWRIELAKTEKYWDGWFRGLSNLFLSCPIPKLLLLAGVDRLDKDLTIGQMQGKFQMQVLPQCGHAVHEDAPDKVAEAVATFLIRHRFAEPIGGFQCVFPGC
UniProt P11021, residues 19-654: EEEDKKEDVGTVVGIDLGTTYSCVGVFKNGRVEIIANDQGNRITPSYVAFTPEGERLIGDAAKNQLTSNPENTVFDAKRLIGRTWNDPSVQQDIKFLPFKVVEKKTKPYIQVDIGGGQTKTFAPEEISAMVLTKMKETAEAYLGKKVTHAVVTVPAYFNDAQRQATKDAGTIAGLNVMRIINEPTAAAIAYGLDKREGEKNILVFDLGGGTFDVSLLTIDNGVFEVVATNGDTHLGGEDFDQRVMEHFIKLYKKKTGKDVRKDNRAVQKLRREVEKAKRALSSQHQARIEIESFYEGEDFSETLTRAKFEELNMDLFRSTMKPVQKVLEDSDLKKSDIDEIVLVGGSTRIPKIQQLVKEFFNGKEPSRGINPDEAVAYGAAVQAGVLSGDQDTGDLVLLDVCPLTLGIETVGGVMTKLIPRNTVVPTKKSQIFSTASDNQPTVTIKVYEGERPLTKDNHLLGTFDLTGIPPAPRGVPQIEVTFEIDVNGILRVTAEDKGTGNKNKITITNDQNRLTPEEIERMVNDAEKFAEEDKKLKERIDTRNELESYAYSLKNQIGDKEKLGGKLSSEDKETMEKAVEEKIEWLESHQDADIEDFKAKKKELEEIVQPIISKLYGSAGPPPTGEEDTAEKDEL

T2: FICD E234G mutant (human) (UniProt Q9BVA6)
T2 sequence: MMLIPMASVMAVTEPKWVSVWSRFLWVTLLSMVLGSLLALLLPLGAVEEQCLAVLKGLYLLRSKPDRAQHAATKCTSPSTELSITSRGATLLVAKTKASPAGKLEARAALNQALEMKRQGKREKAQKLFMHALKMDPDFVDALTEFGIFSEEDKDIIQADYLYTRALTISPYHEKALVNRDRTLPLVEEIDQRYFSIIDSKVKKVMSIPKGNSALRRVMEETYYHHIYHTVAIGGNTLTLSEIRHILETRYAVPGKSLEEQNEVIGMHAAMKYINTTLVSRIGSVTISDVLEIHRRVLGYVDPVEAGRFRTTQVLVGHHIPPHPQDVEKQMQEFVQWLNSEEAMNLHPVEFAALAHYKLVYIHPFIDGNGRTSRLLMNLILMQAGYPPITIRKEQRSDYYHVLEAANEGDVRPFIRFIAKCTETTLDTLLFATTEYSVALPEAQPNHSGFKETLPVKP


What was measured:
[1] = biological target: T1, FICD wild type, his tag labelled (human); test: affinity purification with mass spectrometry; pull-down of his tag labelled FICD (wt, and in parallel E234G) in the presence of the chemical cross-linker DSSO, called in situ; LC-MS/MS, volcano plot FDR 0.01, s0 1.5, n = 3
[2] = biological target: T2, FICD E234G mutant (human); test: as above

binding [1]	binding [2]	Molecule
no binding	no binding	PPME1 (from UniProt Q9Y570 1-386)
binds	binds	HSPA5 (from UniProt P11021 19-654)
no binding	no binding	ATP-dependent 6-phosphofructokinase (PFKP) (protein, UniProt Q01813 1-784) MDADDSRAPKGSLRKFLEHLSGAGKAIGVLTSGGDAQGMNAAVRAVVRMGIYVGAKVYFIYEGYQGMVDGGSNIAEADWESVSSILQVGGTIIGSARCQAFRTREGRLKAACNLLQRGITNLCVIGGDGSLTGANLFRKEWSGLLEELARNGQIDKEAVQKYAYLNVVGMVGSIDNDFCGTDMTIGTDSALHRIIEVVDAIMTTAQSHQRTFVLEVMGRHCGYLALVSALACGADWVFLPESPPEEGWEEQMCVKLSENRARKKRLNIIIVAEGAIDTQNKPITSEKIKELVVTQLGYDTRVTILGHVQRGGTPSAFDRILASRMGVEAVIALLEATPDTPACVVSLNGNHAVRLPLMECVQMTQDVQKAMDERRFQDAVRLRGRSFAGNLNTYKRLAIKLPDDQIPKTNCNVAVINVGAPAAGMNAAVRSAVRVGIADGHRMLAIYDGFDGFAKGQIKEIGWTDVGGWTGQGGSILGTKRVLPGKYLEEIATQMRTHSINALLIIGGFEAYLGLLELSAAREKHEEFCVPMVMVPATVSNNVPGSDFSIGADTALNTITDTCDRIKQSASGTKRRVFIIETMGGYCGYLANMGGLAAGADAAYIFEEPFDIRDLQSNVEHLTEKMKTTIQRGLVLRNESCSENYTTDFIYQLYSEEGKGVFDCRKNVLGHMQQGGAPSPFDRNFGTKISARAMEWITAKLKEARGRGKKFTTDDSICVLGISKRNVIFQPVAELKKQTDFEHRIPKEQWWLKLRPLMKILAKYKASYDVSDSGQLEHVQPWSV
